No constants are given. Whether binding was seen depends on the method and setting. For some of these results: Binding seen in cells or lysates may run through a third protein. Some binding calls cover weakened binding; strength is not graded here. Blank lines part the entries; values can stand above or below the substance they belong to.
Key:
BFP-RFPnb-RhoBTB3 = BFP-RFPnb-RhoBTB3 (UniProt O94955); assay: knock-sideways recruitment (confocal microscopy); one partner fused to an RFP nanobody is sent to mCherry-marked membranes (ACSL3-mCh lipid droplets or mCh-Sec61β ER) in HEK293 cells; recruitment of soluble GFP-SHIP164 scored by Pearson's correlation
Vps26B-RFPnb = Vps26B-RFPnb (UniProt Q4G0F5); assay: as above
GFP-SHIP164 = GFP-SHIP164 (UniProt A0JNW5); assay: co-IP; GFP-Trap agarose beads, lysates of transfected HEK293 cells; lysis buffer 50 mM Tris-Cl pH 7.5, 150 mM NaCl, 0.5 mM EDTA, 0.5% Nonidet P40 Substitute; 3 h at 4 °C; immunoblot; for GFP-RhoBTB3 with Vps26B also in SHIP164 KO #9 cells
GST-SHIP164-Chorein N = GST-SHIP164-Chorein N (UniProt A0JNW5); assay: pull-down; GST pull-down: purified GST protein on GST tag resin, His fusion protein added, 12 h at 4 °C, HNM buffer (20 mM HEPES pH 7.4, 100 mM NaCl, 5 mM MgCl2, 1 mM DTT, 0.2% NP-40); blot with anti-GST or His antibodies; both purified
[1] = molecular target: GST-SHIP164-CT (residues 890–1464) (UniProt A0JNW5); assay: as above
[2] = molecular target: endogenous SHIP164 (human (endogenous in HEK293)) (UniProt A0JNW5); assay: co-IP; endogenous immunoprecipitation: lysate with 1 μg antibody 8 h at 4 °C, protein A/G beads 12 h; IgG as negative control; HEK293 cells
GFP-RhoBTB3 = GFP-RhoBTB3 (UniProt O94955); assay: co-IP; GFP-Trap agarose beads, lysates of transfected HEK293 cells; lysis buffer 50 mM Tris-Cl pH 7.5, 150 mM NaCl, 0.5 mM EDTA, 0.5% Nonidet P40 Substitute; 3 h at 4 °C; immunoblot; for GFP-RhoBTB3 with Vps26B also in SHIP164 KO #9 cells
[3] = molecular target: endogenous Vps26B (human (endogenous in HEK293)) (UniProt Q4G0F5); assay: co-IP; endogenous immunoprecipitation: lysate with 1 μg antibody 8 h at 4 °C, protein A/G beads 12 h; IgG as negative control; HEK293 cells

By UniProt entry, the sequences of proteins in these tests, tags left out. Where a name states a change or a piece, a line headed by the entry shows the natural chain unless it says otherwise. Residues count along the entry.
UniProt O94955: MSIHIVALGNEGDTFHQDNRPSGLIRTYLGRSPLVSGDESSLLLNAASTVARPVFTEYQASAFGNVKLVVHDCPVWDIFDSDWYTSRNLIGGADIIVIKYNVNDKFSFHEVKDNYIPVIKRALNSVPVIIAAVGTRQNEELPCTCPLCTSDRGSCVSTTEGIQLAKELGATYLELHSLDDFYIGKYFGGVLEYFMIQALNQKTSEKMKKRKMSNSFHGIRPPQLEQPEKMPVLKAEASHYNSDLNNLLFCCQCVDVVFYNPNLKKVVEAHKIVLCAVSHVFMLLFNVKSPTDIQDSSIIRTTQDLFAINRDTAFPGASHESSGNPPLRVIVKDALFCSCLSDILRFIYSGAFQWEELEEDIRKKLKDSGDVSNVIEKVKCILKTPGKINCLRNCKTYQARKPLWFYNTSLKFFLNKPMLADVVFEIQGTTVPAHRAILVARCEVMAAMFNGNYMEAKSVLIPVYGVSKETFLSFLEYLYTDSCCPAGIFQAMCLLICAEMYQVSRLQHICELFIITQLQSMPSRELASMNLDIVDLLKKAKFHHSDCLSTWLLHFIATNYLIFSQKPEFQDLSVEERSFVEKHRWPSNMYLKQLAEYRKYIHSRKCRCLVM
UniProt Q4G0F5: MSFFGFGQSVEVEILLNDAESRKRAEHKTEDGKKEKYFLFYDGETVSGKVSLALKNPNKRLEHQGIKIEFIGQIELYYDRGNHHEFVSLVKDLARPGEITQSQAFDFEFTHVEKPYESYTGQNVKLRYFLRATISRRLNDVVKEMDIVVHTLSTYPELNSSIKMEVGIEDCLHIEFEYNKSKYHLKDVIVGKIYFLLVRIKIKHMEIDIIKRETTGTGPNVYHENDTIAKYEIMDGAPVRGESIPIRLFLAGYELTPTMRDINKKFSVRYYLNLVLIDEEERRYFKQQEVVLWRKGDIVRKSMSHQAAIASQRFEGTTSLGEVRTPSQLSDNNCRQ
UniProt A0JNW5: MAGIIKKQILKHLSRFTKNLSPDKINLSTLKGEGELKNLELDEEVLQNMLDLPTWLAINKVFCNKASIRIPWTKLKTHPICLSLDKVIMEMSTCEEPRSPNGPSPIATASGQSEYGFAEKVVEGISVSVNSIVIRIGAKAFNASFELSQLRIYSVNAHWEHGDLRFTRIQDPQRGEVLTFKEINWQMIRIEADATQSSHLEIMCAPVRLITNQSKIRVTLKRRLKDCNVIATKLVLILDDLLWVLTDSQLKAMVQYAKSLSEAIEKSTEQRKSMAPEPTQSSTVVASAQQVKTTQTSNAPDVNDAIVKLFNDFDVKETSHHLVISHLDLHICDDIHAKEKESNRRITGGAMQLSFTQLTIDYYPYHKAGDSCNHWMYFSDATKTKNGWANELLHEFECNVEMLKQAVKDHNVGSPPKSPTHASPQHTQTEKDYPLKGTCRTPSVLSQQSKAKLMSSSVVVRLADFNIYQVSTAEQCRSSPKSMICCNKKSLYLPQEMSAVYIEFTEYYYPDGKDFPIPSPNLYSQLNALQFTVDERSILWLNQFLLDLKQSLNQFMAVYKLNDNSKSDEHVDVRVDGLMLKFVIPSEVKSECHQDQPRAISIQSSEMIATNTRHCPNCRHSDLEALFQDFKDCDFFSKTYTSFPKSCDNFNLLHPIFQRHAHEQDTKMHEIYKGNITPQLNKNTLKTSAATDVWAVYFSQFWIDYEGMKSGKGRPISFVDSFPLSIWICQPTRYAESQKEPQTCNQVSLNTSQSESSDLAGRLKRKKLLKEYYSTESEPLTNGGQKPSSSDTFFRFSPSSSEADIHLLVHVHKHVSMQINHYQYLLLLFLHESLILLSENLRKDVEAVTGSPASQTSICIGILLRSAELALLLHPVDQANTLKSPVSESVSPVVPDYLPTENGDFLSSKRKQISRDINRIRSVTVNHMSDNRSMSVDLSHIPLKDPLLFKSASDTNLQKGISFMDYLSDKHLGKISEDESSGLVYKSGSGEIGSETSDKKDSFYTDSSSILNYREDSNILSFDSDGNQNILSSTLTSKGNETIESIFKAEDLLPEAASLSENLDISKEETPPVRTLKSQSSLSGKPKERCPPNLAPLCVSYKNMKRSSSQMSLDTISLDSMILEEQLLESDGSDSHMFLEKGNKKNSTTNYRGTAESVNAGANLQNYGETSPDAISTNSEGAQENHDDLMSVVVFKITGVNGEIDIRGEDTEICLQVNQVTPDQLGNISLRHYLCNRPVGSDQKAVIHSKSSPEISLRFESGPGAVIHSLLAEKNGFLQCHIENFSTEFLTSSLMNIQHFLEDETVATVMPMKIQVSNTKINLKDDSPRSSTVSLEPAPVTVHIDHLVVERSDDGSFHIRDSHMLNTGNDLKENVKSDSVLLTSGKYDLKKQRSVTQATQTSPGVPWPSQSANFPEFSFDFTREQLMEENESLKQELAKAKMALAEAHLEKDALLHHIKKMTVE
GST-SHIP164-Chorein N: residues 1-104 of A0JNW5
GST-SHIP164-CT (residues 890–1464): residues 890-1464 of A0JNW5

Substance: His-RhoBTB3 (from UniProt O94955 1-611)
binding (GST-SHIP164-Chorein N): binds

Substance: endogenous RhoBTB3 (from UniProt O94955 1-611)
binding [2]: binds

Substance: endogenous SHIP164 (from UniProt A0JNW5 1-1464)
binding (GFP-RhoBTB3): binds
binding [3]: binds

Substance: endogenous Vps26B (from UniProt Q4G0F5 1-336)
binding (GFP-RhoBTB3): binds
binding [2]: binds

Further lines, results first:

binding (BFP-RFPnb-RhoBTB3): binds
binding (Vps26B-RFPnb): binds
Substance: GFP-SHIP164 (from UniProt A0JNW5 1-1464)

binding (GFP-SHIP164): binds
Substance: Halo-RhoBTB3 (from UniProt O94955 1-611)

binding [1]: binds
Substance: His-Vps26B (from UniProt Q4G0F5 1-336)

Source: PMC10987540, “Biogenesis of Rab14-positive endosome buds at Golgi–endosome contacts by the RhoBTB3–SHIP164–Vps26B complex” (Cell Discovery, 2024)
